Test results published in patent publication US7868015B2, “Phosphodiesesterase 4 inhibitors for the treatment of a cognitive deficit” (Cold Spring Harbor Laboratory, priority 2000, dated 2011).

Test system: CBP^+/− mutant mice and wildtype mice
Assay: Object recognition: control behavioural measures and repeated injections, both genotypes
Type: in vivo
Description: In addition, vehicle- and drug-injected mice were counterbalanced from experiment to experiment. Such design allowed at least two weeks wash-out time between repeated usages of high doses.
The experiments were videotaped via an overhead video camera system. Types were reviewed by a blinded observer and the following behavioral parameters were determined: time of exploration of an each object; the total time of exploration of the objects; number of approaches to the objects; and time (latency) to first approach to an object. The discrimination index was determined as described previously (Ennaceur, A. & Aggleton, J. P., Behav. Brain Res., 88:181-193 (1997)). […] All values in the text and figure legends are expressed as mean±SEM.

COc1ccc([C@H]2CNC(=O)[C@H](Cc3cccc(C)c3)C2)cc1OC1CCCC1 [HT0712, (3S,5S)-5-(3-cyclopentyloxy-4-methoxy-phenyl)-3-(3-methyl-benzyl)-piperidin-2-one]
latency to first approach an object, differences between genotypes and/or drug treatments (all experiments): no differences
total exploration time, effect of drug treatment (mouse, in vivo): did not change
total number of object-approaches, effect of drug treatment (mouse, in vivo): did not change
